# The exact form of at least one protein or probe is not confirmed. Where cells or extracts were used, other partners may take part. Negatives hold for the conditions tested.
# Protein sequences, listed by entry. Tags and fused reporters are not part of them. Residues count along the entry.
# UniProt P16422, 24-314: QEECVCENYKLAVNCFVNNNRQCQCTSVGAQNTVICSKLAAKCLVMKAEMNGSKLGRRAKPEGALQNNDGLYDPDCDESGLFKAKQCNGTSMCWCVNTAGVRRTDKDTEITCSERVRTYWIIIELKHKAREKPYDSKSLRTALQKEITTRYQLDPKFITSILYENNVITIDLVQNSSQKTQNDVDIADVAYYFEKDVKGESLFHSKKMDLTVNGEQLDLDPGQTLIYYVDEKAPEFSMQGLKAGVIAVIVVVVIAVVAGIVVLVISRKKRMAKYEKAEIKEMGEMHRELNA
# Assays:
# EpCAM on WERI-Rb1 cells = EpCAM on WERI-Rb1 cells (UniProt P16422); assay: flow cytometry and fluorescence microscopy on cells; settings: 200 nM aptamer, protein on the cell surface
# EpCAM on MCF-7 cells = EpCAM on MCF-7 cells (UniProt P16422); assay: as above; settings: 200 nM aptamer, protein on the cell surface
# [1] = 2'-OMe pyrimidines, synthetic backbone
Sequence,"binding result (EpCAM on WERI-Rb1 cells; weaker than on MCF-7, 2'-F pyrimidines)","binding result (EpCAM on MCF-7 cells; binding decreased by blocking with EpCAM antibody (cell line of blocking test not stated), 2'-F pyrimidines)",binding result (EpCAM on WERI-Rb1 cells; [1]),binding result (EpCAM on MCF-7 cells; [1])
GCGACUGGUUACCCGGUCG [EpApt (EpDT3)],binds,binds,–,–
GCGACUGGUUACCCGGUCG [ScrApt (ScrDT3)],–,–,no binding,no binding
